Measured values from patent US9815815B2, “Non-selective kinase inhibitors” (GILEAD SCIENCES, INC., priority 2013, dated 2017).
pIC50: −log10 of the molar value. Where two headings read alike, the source gives them in different places.

What was measured:
[1] = test system: PDGFAA stimulated AKT phosphorylation; assay: In cell Western (ICW), PDGFAA stimulated AKT phosphorylation in human fetal lung fibroblasts; type: cell-based; conditions: for pIC50: Homo sapiens, Fibroblast
Experimental: In cell Western (ICW). […] HLFs were maintained in subculture at no more than 6 passages in DMEM with 5% FBS and 4 mM Glutamax at 37° C., 5% CO2. HLFs were plated and grown to 70-80% confluence in 96 well plates then serum-starved for 48 hours. […] After washing, the signal was quantified using an Odyssey Infrared Imaging System (LI-COR). Phosphoprotein signal (800 nm) was normalized to total protein signal (700 nm) acquired from each well and experimental duplicates on same plate were averaged and reported.

[2] = test system: PDGFBB stimulated AKT phosphorylation; assay: In cell Western (ICW), PDGFBB stimulated AKT phosphorylation in human fetal lung fibroblasts; type: cell-based; conditions: Fibroblast, HLFs, read-out: IC50, PDGFBB stimulated AKT phosphorylation at Ser473
Experimental: In cell Western (ICW). […] HLFs were maintained in subculture at no more than 6 passages in DMEM with 5% FBS and 4 mM Glutamax at 37° C., 5% CO2. HLFs were plated and grown to 70-80% confluence in 96 well plates then serum-starved for 48 hours. […] Antibodies were detected using IRDye 680LT goat anti-mouse IgG and IRDye 800W goat a-rabbit IgG conjugated antibodies. After washing, the signal was quantified using an Odyssey Infrared Imaging System (LI-COR). Phosphoprotein signal (800 nm) was normalized to total protein signal (700 nm) acquired from each well and experimental duplicates on same plate were averaged and reported.

Q: `Cc1ccc(NC(=O)c2ccc(CN3CCN(C)CC3)cc2)cc1Nc1nccc(-c2cccnc2)n1` [Imatinib] was tested. Which pIC50 ([1]; read-out: IC50, PDGFAA stimulation of pAKT(S473)) did it give?
A: 6.22 to 6.52

Q: What about the pIC50 ([1]; read-out: IC50, PDGFAA stimulation of pAKT(T308)) of the same compound?
A: 6.22 to 6.52

Q: And the “IC50 for PDGFAA stimulated phosphorylation of AKT, PK10453 vs imatinib” value ([1]; comparison in words)?
A: not significantly different

Q: And the pIC50 [2]?
A: 5.74
